The other results are listed elsewhere or left out. The main result of the screen is listed elsewhere. These columns were measured beside it and carry no call. The list favours compounds with an active or inconclusive main result. Potencies come from curve fits of mixed quality, noted in brackets.
Test: IkB Signaling
Details: ABC-DLBCL IkBa-CBG/CBR dual luciferase ratio (green luciferase fused to IkBa over red control in OCI-Ly3 lymphoma cells), 4 h; measured here: control luc red channel unless noted
Method in brief: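 In this assay, an IκBα–CBG68 fusion accumulates when IKK-driven degradation is blocked; native CBR normalizes for cell number. OCI-Ly3 cells were treated 4 h with compound and doxycycline, then green and red light read after Chroma-Glo addition.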
For `CCOc1cc2c3c(c1)C1(C(=O)N3C(C)(C)C=C2C)C(C#N)=C(N)Oc2cc(O)ccc21` (stereo not given), the AC50 was 12.6 µM [falling, partial curve]. For `COc1ccc(CCNC(=O)C(=O)NCC(c2ccc3c(c2)OCO3)N2CCOCC2)cc1OC` (stereo not given), the AC50 was 0.158 µM [falling, full curve, poor fit]. With `Cc1cccn2c(=O)c(C(=O)NCCc3ccccc3)c(O)nc12` the AC50 was 25.1 µM [falling, single point]. With `CC(=O)Nc1ccc(Oc2cc(C#N)c(C#N)cc2N2CCCCCC2)cc1` the AC50 was 15.8 µM [falling, partial curve]. For `CCOc1ccc(NC(=O)c2oc3ccccc3c2NC(=O)c2c(F)cccc2F)cc1`, the AC50 was 10 µM [falling, partial curve]. With `CCOc1ccc2c(c1)NC(c1cccs1)=NC(c1ccc(F)cc1)=N2` the AC50 was 39.8 µM [falling, single point]. In the case of `COc1ccc2occ(CC(=O)Nc3ccc(S(=O)(=O)Nc4nc(C)cc(C)n4)cc3)c2c1`, the AC50 is reported as 7.94 µM [falling, partial curve]. For `COc1ccc(C2C(C(=O)Nc3ccc(C)cc3C)=C(C)Nc3nc4ccccc4n32)c(OC)c1` (stereo not given), the AC50 was 25.1 µM [falling, single point]. In the case of `COC(=O)c1cc(NC(=O)Cn2nc(-c3ccc(C)c(C)c3)ccc2=O)cc(C(=O)OC)c1`, the AC50 is reported as 20 µM [falling, single point]. In the case of `O=C(CN1C(=O)COc2ccc(S(=O)(=O)Nc3ccccc3)cc21)Nc1cccc(Cl)c1`, the AC50 is reported as 10 µM [falling, partial curve]. With `COC(=O)c1ccc(Cn2nnc3c(=O)[nH]c(C4CCCN(S(=O)(=O)c5cccc(Cl)c5)C4)nc32)cc1` (stereo not given) the AC50 was 31.6 µM [falling, single point]. With `Cc1nc(SCN2C(=O)c3ccccc3C2=O)n[nH]1` the AC50 was 25.1 µM [rising, partial curve]. With `Cc1nn(-c2ccccc2)c2c1C1(C(=O)N(C)c3ccccc31)N(c1ccccc1)C(=O)N2` (stereo not given) the AC50 was 12.6 µM [falling, partial curve]. For `CCc1c(-c2ccccc2)nc2ccccc2c1C(=O)NCc1ccc(C)cc1`, the AC50 was 10 µM [falling, partial curve]. With `CCOc1ccc(C(=O)N2CCC(c3noc(-c4ccc(S(=O)(=O)N5CCCC5)cc4)n3)CC2)cc1` the AC50 was 3.98 µM [falling, full curve, poor fit]. In the case of `CCC(=O)N1CCc2cc(S(=O)(=O)Nc3ccc4c(c3)OCCO4)ccc21`, the AC50 is reported as 15.8 µM [falling, partial curve]. With `CCN(C(=O)COC(=O)c1cccnc1SC)C1CCS(=O)(=O)C1` (stereo not given) the AC50 was 25.1 µM [falling, partial curve]. With `Cc1cc2c(cc1S(=O)(=O)CCC(=O)NCCc1ccccc1)OCC(=O)N2` the AC50 was 12.6 µM [falling, partial curve]. For `Cc1ccc(NC(=O)CN2CCSc3ccc(S(=O)(=O)N4CCCC4)cc32)cc1C`, the AC50 was 1.26 µM [falling, partial curve]. In the case of `COc1cc(OC)c(NS(=O)(=O)c2cc(-c3cnc(C4CC4)o3)ccc2C)cc1Cl`, the AC50 is reported as 39.8 µM [falling, partial curve]. In the case of `Cc1ccccc1CSc1ncc(CO)n1Cc1ccc(F)cc1`, the AC50 is reported as 20 µM [falling, partial curve]. For `COc1ccc(-c2cn3cccnc3n2)cc1NC(=O)c1cc(C)cc(C)c1`, the AC50 was 39.8 µM [falling, single point]. In the case of `Cc1cc(Cl)ccc1OCC(=O)N(Cc1ccco1)Cc1ccco1`, the AC50 is reported as 39.8 µM [falling, partial curve]. With `Cc1ccccc1Cc1c(C)nc2nc(SCC(=O)NCc3ccco3)nn2c1C` the AC50 was 12.6 µM [falling, partial curve]. In the case of `Cc1ccc(-n2ncc(C(=O)N3CCN(c4ccc(Cl)cc4)CC3)c2C2CCN(C(=O)OC(C)(C)C)CC2)c(C)c1`, the AC50 is reported as 25.1 µM [falling, single point]. For `CCOC(=O)c1ccc(NC(=O)c2ccc(=O)n(Cc3cccc(C)c3)c2)cc1`, the AC50 was 25.1 µM [falling, partial curve]. With `O=C(NCCOCCn1c(=O)oc2ccccc21)Nc1ccc(F)cc1` the AC50 was 25.1 µM [falling, partial curve]. For `CC(C)N(Cc1ccccc1)C(=O)CCS(=O)(=O)c1ccc2c(c1)oc(=O)n2C`, the AC50 was 25.1 µM [falling, single point]. In the case of `Cc1cc(/N=C/C=C2\N(C)c3ccccc3C2(C)C)n(CCC#N)n1`, the AC50 is reported as 25.1 µM [falling, single point]. With `Cc1ccc(Cn2c(C)c(CNCCCc3ccccc3)c(C(=O)O)c2C)cc1` the AC50 was 25.1 µM [falling, single point]. For `CCCCNC(=O)CSc1nnc(C)c2c(C)n(-c3ccccc3)nc12`, the AC50 was 2.51 µM [falling, full curve]. In the case of `COc1ccc2c(c1)c1ncnc(N3CCN(Cc4ccc5c(c4)OCO5)CC3)c1n2C`, the AC50 is reported as 10 µM [falling, partial curve]. With `CCC1CN(C(=O)N2CCC(C(=O)NCc3ccccc3C)CC2)c2ccccc2O1` (stereo not given) the AC50 was 12.6 µM [falling, partial curve]. In the case of `Cc1ccc(-c2noc(CNC(=O)c3ccccc3)n2)cc1`, the AC50 is reported as 3.16 µM [rising, full curve, poor fit]. For `CC(C)OCCCNc1ncnc2c1[nH]c1ccccc12`, the AC50 was 15.8 µM [falling, partial curve]. In the case of `Cc1ccc(-c2cc3c(n2-c2ccc(C)cc2)CC(C)(C)CC3=O)cc1`, the AC50 is reported as 2 µM [falling, full curve, poor fit]. For `Cc1cc(=O)n2[nH]c(C)c(-c3ccccc3)c2n1`, the AC50 was 25.1 µM [falling, partial curve]. With `Cc1ccc(C2=NN(CC(=O)NCCN(CC(C)C)CC(C)C)C(=O)CC2)cc1` the AC50 was 2 µM [falling, partial curve]. For `CC(C)NC(=O)C1CCN(c2nc3ccccc3nc2C(F)(F)F)CC1`, the AC50 was 2 µM [rising, partial curve]. With `Cn1cc(/C(Cc2ccccc2)=N\O)c2ccccc21` the AC50 was 0.316 µM [rising, full curve].
